From the supplement of paper PMC10849652
The list shows a part of the results.

Amino acid sequences for entries named in this document (tags omitted). A change or cut given only in a name is not applied to a line headed by its entry.
UniProt O43813, whole entry, looked up: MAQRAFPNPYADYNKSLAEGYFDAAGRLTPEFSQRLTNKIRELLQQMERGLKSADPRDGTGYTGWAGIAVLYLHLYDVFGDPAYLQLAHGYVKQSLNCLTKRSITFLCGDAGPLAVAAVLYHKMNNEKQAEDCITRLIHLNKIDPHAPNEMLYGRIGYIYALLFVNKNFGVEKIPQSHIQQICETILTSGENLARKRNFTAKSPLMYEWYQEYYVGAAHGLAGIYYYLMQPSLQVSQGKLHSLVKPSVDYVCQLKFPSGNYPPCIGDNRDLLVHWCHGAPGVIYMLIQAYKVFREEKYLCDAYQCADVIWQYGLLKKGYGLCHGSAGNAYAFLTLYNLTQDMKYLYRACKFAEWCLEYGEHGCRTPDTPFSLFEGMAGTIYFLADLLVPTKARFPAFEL
UniProt Q9H0V9: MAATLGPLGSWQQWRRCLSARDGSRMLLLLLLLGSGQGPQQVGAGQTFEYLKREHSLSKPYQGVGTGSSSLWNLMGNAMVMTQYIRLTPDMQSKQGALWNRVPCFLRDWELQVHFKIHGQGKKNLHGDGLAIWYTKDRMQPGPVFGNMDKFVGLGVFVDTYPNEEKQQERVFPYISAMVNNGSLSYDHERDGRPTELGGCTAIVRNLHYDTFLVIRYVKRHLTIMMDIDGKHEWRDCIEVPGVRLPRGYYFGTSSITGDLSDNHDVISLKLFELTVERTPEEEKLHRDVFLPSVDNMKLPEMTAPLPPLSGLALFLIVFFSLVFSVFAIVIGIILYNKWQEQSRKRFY
UniProt P18858, whole entry, looked up: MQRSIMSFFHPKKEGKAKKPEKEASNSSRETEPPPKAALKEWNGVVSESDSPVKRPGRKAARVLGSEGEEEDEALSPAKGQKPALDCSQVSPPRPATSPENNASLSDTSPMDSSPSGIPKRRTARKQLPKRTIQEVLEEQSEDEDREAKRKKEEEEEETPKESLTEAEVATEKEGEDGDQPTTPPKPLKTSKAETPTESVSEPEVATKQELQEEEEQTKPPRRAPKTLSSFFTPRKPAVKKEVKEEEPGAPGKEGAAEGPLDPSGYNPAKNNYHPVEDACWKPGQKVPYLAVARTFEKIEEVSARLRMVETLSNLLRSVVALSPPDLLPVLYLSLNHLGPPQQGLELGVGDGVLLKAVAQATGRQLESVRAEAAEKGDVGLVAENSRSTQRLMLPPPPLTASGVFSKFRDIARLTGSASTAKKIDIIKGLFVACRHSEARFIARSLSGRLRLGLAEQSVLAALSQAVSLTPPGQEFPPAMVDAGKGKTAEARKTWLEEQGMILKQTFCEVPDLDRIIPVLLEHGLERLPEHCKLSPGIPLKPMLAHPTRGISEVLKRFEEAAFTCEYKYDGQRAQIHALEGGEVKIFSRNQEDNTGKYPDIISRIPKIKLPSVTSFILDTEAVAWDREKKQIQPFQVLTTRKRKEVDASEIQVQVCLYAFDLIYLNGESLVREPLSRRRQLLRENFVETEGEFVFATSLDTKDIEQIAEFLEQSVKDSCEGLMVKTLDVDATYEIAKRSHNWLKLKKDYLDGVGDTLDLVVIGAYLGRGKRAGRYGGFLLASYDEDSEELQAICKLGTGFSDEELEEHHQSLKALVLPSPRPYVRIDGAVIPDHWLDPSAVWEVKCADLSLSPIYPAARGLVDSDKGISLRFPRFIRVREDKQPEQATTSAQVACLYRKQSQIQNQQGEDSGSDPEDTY
UniProt Q6P5S2: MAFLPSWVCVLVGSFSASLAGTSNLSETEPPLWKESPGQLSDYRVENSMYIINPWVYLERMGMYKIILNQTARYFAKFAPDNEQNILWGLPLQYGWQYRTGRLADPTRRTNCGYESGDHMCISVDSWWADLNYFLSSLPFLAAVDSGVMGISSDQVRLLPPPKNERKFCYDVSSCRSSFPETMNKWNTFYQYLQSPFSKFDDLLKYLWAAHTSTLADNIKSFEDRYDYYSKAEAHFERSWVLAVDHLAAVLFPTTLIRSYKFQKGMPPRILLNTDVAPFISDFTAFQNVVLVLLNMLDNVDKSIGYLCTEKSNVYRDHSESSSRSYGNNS
UniProt P20700: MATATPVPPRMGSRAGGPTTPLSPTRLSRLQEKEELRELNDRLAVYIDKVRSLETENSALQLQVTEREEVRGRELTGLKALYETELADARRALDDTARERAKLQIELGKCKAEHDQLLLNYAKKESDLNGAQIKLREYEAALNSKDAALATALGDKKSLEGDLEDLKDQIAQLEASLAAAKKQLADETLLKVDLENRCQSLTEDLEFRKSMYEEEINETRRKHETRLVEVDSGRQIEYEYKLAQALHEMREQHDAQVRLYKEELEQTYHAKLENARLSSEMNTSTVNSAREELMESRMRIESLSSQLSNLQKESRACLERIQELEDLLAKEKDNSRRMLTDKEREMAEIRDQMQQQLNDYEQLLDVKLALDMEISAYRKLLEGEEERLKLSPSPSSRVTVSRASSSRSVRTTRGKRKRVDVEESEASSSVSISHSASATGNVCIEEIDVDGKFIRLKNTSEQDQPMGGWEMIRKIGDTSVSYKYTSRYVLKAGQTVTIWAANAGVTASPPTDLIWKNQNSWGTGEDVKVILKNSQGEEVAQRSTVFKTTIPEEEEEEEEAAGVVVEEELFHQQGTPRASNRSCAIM
UniProt Q96AG4: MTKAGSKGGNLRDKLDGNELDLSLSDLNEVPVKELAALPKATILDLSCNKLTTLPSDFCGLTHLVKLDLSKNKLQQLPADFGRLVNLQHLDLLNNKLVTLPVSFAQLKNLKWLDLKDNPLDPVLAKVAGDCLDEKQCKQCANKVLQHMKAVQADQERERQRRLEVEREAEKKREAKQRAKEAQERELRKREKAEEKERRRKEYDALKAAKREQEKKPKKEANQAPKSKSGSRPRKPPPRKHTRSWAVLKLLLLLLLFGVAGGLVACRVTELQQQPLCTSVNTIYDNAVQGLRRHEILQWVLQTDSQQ
UniProt P83111: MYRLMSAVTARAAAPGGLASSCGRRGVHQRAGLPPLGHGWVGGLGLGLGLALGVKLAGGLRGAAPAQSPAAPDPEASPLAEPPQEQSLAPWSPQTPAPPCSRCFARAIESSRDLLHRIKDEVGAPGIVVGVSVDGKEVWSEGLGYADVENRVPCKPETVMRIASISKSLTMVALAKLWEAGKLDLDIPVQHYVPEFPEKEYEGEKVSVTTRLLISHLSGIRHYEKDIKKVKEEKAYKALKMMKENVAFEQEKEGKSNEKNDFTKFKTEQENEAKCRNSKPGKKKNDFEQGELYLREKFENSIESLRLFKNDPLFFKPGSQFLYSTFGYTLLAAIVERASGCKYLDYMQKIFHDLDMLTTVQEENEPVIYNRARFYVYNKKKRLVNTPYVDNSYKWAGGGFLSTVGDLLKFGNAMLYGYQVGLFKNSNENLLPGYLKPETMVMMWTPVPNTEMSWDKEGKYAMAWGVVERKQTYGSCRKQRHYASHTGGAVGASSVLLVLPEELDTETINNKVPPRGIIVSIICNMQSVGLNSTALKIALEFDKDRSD
UniProt Q6PJG9: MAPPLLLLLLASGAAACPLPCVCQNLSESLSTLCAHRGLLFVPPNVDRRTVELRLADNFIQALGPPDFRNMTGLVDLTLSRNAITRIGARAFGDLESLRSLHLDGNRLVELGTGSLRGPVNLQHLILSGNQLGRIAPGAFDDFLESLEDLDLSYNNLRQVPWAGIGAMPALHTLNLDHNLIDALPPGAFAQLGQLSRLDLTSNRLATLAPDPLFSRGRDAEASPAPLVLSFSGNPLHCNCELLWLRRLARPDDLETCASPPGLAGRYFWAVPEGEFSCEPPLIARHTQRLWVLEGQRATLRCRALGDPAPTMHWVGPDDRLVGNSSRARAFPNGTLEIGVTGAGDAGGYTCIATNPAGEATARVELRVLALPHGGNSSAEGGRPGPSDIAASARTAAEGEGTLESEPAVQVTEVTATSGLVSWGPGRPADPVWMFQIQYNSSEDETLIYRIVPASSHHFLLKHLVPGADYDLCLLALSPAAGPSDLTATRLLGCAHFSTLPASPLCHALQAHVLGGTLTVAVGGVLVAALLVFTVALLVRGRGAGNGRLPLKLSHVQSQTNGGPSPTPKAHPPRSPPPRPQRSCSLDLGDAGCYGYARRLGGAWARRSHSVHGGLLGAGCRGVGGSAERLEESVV
UniProt O43766: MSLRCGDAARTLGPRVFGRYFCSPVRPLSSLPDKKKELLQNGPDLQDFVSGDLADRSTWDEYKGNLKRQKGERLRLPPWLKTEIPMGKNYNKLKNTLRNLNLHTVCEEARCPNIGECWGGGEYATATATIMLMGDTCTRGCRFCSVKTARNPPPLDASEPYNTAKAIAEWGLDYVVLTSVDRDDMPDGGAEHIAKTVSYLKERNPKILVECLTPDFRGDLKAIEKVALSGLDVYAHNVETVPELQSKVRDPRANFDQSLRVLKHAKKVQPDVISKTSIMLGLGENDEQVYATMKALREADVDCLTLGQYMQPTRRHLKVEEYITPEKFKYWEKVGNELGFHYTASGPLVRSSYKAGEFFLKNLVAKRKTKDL
UniProt Q9NS86: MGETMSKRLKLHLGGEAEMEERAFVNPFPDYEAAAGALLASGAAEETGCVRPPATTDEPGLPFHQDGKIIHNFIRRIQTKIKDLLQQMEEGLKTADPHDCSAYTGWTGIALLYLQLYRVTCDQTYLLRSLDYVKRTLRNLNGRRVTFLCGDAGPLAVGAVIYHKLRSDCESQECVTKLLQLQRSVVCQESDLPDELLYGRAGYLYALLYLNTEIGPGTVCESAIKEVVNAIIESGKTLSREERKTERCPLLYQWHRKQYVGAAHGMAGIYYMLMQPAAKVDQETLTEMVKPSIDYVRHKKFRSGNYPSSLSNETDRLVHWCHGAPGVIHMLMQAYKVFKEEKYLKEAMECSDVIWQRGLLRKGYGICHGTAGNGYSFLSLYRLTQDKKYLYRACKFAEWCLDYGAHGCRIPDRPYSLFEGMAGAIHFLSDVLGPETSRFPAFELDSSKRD
UniProt Q6UWP7: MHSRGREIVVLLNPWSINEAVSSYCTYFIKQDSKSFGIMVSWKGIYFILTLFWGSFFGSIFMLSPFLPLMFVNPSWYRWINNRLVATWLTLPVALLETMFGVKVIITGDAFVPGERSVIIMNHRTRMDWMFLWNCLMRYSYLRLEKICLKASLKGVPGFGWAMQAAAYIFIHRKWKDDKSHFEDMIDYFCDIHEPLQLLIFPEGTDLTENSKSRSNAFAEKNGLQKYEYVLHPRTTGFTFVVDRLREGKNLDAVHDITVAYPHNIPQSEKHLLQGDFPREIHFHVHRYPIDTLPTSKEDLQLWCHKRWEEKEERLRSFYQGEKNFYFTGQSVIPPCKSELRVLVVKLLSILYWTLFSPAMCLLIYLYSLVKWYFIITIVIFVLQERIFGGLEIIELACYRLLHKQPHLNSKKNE
UniProt P01130: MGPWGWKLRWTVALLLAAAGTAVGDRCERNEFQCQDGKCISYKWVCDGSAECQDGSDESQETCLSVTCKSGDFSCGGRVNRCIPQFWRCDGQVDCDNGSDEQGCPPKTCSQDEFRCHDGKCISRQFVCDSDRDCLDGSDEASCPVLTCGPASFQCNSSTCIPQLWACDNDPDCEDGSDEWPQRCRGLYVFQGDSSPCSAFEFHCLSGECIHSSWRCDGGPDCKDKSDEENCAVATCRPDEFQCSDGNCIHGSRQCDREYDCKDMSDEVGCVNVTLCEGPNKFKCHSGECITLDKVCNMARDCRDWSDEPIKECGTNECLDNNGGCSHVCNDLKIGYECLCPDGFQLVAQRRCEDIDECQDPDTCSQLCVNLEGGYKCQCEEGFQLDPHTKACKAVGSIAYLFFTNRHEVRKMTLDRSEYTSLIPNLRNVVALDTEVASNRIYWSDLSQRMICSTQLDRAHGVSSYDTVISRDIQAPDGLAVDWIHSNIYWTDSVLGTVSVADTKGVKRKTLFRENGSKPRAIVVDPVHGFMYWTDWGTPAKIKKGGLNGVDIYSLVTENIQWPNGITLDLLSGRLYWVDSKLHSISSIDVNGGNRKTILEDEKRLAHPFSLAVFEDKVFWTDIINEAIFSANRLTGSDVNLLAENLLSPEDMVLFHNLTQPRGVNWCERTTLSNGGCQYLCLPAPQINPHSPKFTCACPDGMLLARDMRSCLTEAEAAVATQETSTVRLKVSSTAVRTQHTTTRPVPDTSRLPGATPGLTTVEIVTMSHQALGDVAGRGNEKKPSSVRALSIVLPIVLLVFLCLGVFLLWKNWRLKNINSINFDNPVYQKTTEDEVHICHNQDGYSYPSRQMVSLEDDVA
UniProt Q6P1Q0: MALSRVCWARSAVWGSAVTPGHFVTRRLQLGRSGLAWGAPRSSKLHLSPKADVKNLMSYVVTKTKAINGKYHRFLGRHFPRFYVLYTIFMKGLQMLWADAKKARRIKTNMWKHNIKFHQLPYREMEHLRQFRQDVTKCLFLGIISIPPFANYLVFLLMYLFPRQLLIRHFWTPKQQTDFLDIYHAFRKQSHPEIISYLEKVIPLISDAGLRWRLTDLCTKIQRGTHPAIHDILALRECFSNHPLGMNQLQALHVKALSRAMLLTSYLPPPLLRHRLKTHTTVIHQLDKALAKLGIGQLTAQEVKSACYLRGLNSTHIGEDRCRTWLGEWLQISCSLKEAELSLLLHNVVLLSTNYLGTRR

Legend:
Test in all cases: log2 fold change, soluble protein after heating vs DMSO (PISA); higher = thermal stabilisation; K562 cells, 10 uM, 30 min; active = over 0.2 and 3.5 SD of the protein, either way, in both replicates (recomputed)
bafetinib = compound: Cc1ccc(NC(=O)c2ccc(CN3CC[C@H](N(C)C)C3)c(C(F)(F)F)c2)cc1Nc1nccc(-c2cncnc2)n1 [bafetinib]
Method in brief: (§1)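 K562 cells at 2×10^6 cells/mL were given 10 μM compound for 30 min. Aliquots then went through 3 min of heating across 48°C-58°C, were pooled, and were extracted in PBS with 0.5% NP-40 at 4°C, and the supernatant after 21,000xg for 90 min was quantified by TMTpro 16plex LC-MS/MS with channel sums equalised. Thermal stability relative to control samples, from duplicates, is given as log2 fold change.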

[1] = compound: Cc1cccc(CC(=O)N2CCc3c2ccc(-c2cn(C)c4ncnc(N)c24)c3F)n1
Method in brief: as §1

nilotinib = compound: Cc1cn(-c2cc(NC(=O)c3ccc(C)c(Nc4nccc(-c5cccnc5)n4)c3)cc(C(F)(F)F)c2)cn1 [nilotinib]
Method in brief: as §1

[2] = compound: Cc1nc(Nc2n[nH]c3c2CN(C(=O)N[C@H](CN(C)C)c2ccccc2)C3(C)C)c2sccc2n1
Method in brief: as §1

dasatinib = compound: Cc1nc(Nc2ncc(C(=O)Nc3c(C)cccc3Cl)s2)cc(N2CCN(CCO)CC2)n1 [dasatinib]
Method in brief: as §1

[3] = compound: Cc1ncc(-c2ccnc(Nc3ccc(S(C)(=O)=O)cc3)n2)n1C(C)C
Method in brief: as §1

[4] = compound: Cn1cc(-c2ccc3c(c2)CCN3C(=O)Cc2cccc(C(F)(F)F)c2)c2c(N)ncnc21
Method in brief: as §1

[5] = compound: Cn1cc(-c2ccc3nnc(C(F)(F)c4ccc5ncccc5c4)n3n2)cn1
Method in brief: as §1

tipifarnib = compound: Cn1cncc1[C@@](N)(c1ccc(Cl)cc1)c1ccc2c(c1)c(-c1cccc(Cl)c1)cc(=O)n2C [tipifarnib]
Method in brief: as §1

mubritinib = compound: FC(F)(F)c1ccc(/C=C/c2nc(COc3ccc(CCCCn4ccnn4)cc3)co2)cc1 [mubritinib]
Method in brief: as §1

[6] = compound: NC(=O)Nc1cc(-c2cccc(F)c2)sc1C(=O)N[C@H]1CCCNC1
Method in brief: as §1

[7] = compound: NC(=O)c1cnc(N[C@@H]2CCCC[C@@H]2N)nc1Nc1cccc(-n2nccn2)c1
Method in brief: as §1

[8] = compound: NC1(c2ccc(-c3nc4ccn5c(=O)[nH]nc5c4cc3-c3ccccc3)cc2)CCC1
Method in brief: as §1

[9] = compound: NCC(=O)Nc1ccc(-n2nc(C(F)(F)F)cc2-c2ccc3c(ccc4ccccc43)c2)cc1
Method in brief: as §1

entinostat = compound: Nc1ccccc1NC(=O)c1ccc(CNC(=O)OCc2cccnc2)cc1 [entinostat]
Method in brief: as §1

vorinostat = compound: O=C(CCCCCCC(=O)Nc1ccccc1)NO [vorinostat]
Method in brief: as §1

citarinostat = compound: O=C(CCCCCCNC(=O)c1cnc(N(c2ccccc2)c2ccccc2Cl)nc1)NO [citarinostat]
Method in brief: as §1

silmitasertib = compound: O=C(O)c1ccc2c(c1)nc(Nc1cccc(Cl)c1)c1ccncc12 [silmitasertib]
Method in brief: as §1

[10] = compound: O=C1NC(=O)C(c2cnc3ccccn23)=C1c1cn2c3c(cc(F)cc13)CN(C(=O)N1CCCCC1)CC2
Method in brief: as §1

[11] = compound: c1cc(OCCN2CCCCC2)cc(-c2n[nH]c3ccc(-c4nnc[nH]4)cc23)c1
Method in brief: as §1

Measured: log2 fold change

LANCL1 (UniProt O43813)
inactive: bafetinib -0.018 | [1] -0.009 | nilotinib 0.004 | [2] 0.013 | dasatinib 0.017 | [3] -0.001 | [4] 0.014 | [5] 0.003 | tipifarnib -0.016 | mubritinib 0.014 | [6] -0.008 | [7] -0.023 | [8] 0.001 | [9] 0.074 | entinostat -0.031 | vorinostat 0.027 | citarinostat 0.037 | silmitasertib -0.021 | [10] 0.073 | [11] -0.036

KYNU (UniProt Q16719)
inactive: bafetinib -0.091 | [1] 0.064 | nilotinib 0.026 | [2] 0.009 | dasatinib -0.015 | [3] 0.008 | [4] -0.046 | [5] -0.005 | tipifarnib -0.008 | mubritinib 0.017 | [6] -0.045 | [7] 0.025 | [8] -0.011 | [9] 0.025 | entinostat 0.016 | vorinostat 0.011 | citarinostat 0.027 | silmitasertib -0.021 | [10] 0.058 | [11] -0.052

LMAN2L isoform 2 (UniProt Q9H0V9)
inactive: bafetinib -0.042 | [1] 0.018 | nilotinib -0.006 | [2] 0.028 | dasatinib 0.017 | [3] -0.012 | [4] 0.016 | [5] 0.015 | tipifarnib 0.006 | mubritinib 0.048 | [6] 0.004 | [7] -0.001 | [8] -0.055 | [9] -0.007 | entinostat -0.009 | vorinostat 0.016 | citarinostat 0.017 | silmitasertib 0.048 | [10] -0.035 | [11] -0.095

LIG1 (UniProt P18858)
inactive: bafetinib 0.028 | [1] 0.043 | nilotinib -0.113 | [2] 0.037 | dasatinib -0.262 | [3] -0.092 | [4] 0.044 | [5] 0.194 | tipifarnib -0.094 | mubritinib 0.037 | [6] 0.027 | [7] -0.14 | [8] -0.179 | [9] -0.09 | entinostat 0.077 | vorinostat 0.085 | citarinostat 0.086 | silmitasertib 0.041 | [10] -0.183 | [11] 0.012

LEG1 (UniProt Q6P5S2)
inactive: bafetinib 0.071 | [1] 0.175 | nilotinib -0.032 | [2] 0.034 | dasatinib 0.024 | [3] 0.081 | [4] -0.134 | tipifarnib -0.222 | mubritinib 0.122 | [6] 0.167 | [7] -0.136 | [8] -0.029 | [9] -0.333 | entinostat 0.026 | vorinostat 0.199 | silmitasertib -0.351

LARS (UniProt Q9P2J5)
inactive: bafetinib 0.064 | [1] 0.02 | nilotinib -0.096 | [2] -0.018 | dasatinib 0.018 | [3] 0.036 | [4] -0.161 | [5] -0.129 | tipifarnib 0.056 | mubritinib -0.125 | [6] 0.117 | [7] -0.007 | [8] 0.101 | [9] 0.059 | entinostat 0.025 | vorinostat 0.003 | citarinostat -0.017 | silmitasertib 0.158 | [10] 0.226 | [11] -0.138

LAMP2 isoform 2 (UniProt P13473)
inactive: bafetinib -0.014 | [1] -0.014 | nilotinib 0.018 | [2] -0.009 | dasatinib -0.047 | [3] 0 | [4] 0.005 | tipifarnib 0.126 | mubritinib 0.003 | [7] -0.1 | [8] -0.321 | [9] -0.132 | vorinostat -0.113 | citarinostat 0.061 | silmitasertib 0.003 | [10] 0.027 | [11] -0.275

LMNB1 (UniProt P20700)
inactive: bafetinib -0.089 | [1] -0.004 | nilotinib 0.037 | [2] -0.11 | dasatinib 0.092 | [3] -0.117 | [4] -0.059 | [5] -0.074 | tipifarnib 0.105 | mubritinib -0.069 | [6] 0.094 | [7] -0.073 | [8] 0.078 | [9] -0.018 | entinostat 0.024 | vorinostat -0.029 | citarinostat 0.033 | silmitasertib 0.097 | [10] -0.105 | [11] -0.072

LRRC59 (UniProt Q96AG4)
inactive: bafetinib 0.016 | [1] -0.004 | nilotinib -0.035 | [2] 0.032 | dasatinib 0.028 | [3] -0.019 | [4] 0.011 | [5] 0.008 | tipifarnib -0.01 | mubritinib -0.004 | [6] -0.02 | [7] -0.003 | [8] 0.01 | [9] -0.007 | entinostat -0.027 | vorinostat -0.001 | citarinostat 0.007 | silmitasertib -0.038 | [10] 0.013 | [11] -0.004

LACTB (UniProt P83111)
inactive: bafetinib -0.08 | [1] -0.05 | nilotinib -0.011 | [2] 0.022 | dasatinib 0.105 | [3] -0.084 | [4] -0.096 | [5] -0.297 | tipifarnib 0.03 | mubritinib -0.107 | [6] 0.194 | [7] 0.037 | [8] 0.029 | [9] -0.159 | entinostat 0.065 | vorinostat -0.016 | citarinostat -0.09 | silmitasertib 0.103 | [10] 0.06 | [11] -0.08

LRFN4 (UniProt Q6PJG9)
inactive: bafetinib -0.102 | [1] 0.16 | dasatinib -0.138 | [4] -0.008 | [5] -0.011 | tipifarnib 0.021 | mubritinib -0.008 | [6] -0.023 | [7] 0.019 | [8] -0.091 | entinostat 0.113 | vorinostat -0.261 | silmitasertib 0.111 | [10] -0.085

LIAS (UniProt O43766)
inactive: bafetinib -0.034 | [1] -0.079 | nilotinib 0.038 | [2] 0.003 | dasatinib 0.028 | [3] -0.059 | [4] -0.017 | [5] 0.059 | tipifarnib 0.098 | mubritinib 0.002 | [6] -0.079 | [7] 0.014 | [8] -0.035 | [9] -0.016 | entinostat -0.047 | vorinostat -0.17 | citarinostat -0.093 | silmitasertib 0.026 | [10] 0.062 | [11] -0.022

3 successive records already listed:
LMAN2L isoform 2 (UniProt Q9H0V9)
inactive: bafetinib -0.042 | [1] 0.018 | nilotinib -0.006 | [2] 0.028 | dasatinib 0.017 | [3] -0.012 | [4] 0.016 | [5] 0.015 | tipifarnib 0.006 | mubritinib 0.048 | [6] 0.004 | [7] -0.001 | [8] -0.055 | [9] -0.007 | entinostat -0.009 | vorinostat 0.016 | citarinostat 0.017 | silmitasertib 0.048 | [10] -0.035 | [11] -0.095

LIG1 (UniProt P18858)
inactive: bafetinib 0.028 | [1] 0.043 | nilotinib -0.113 | [2] 0.037 | dasatinib -0.262 | [3] -0.092 | [4] 0.044 | [5] 0.194 | tipifarnib -0.094 | mubritinib 0.037 | [6] 0.027 | [7] -0.14 | [8] -0.179 | [9] -0.09 | entinostat 0.077 | vorinostat 0.085 | citarinostat 0.086 | silmitasertib 0.041 | [10] -0.183 | [11] 0.012

LEG1 (UniProt Q6P5S2)
inactive: bafetinib 0.071 | [1] 0.175 | nilotinib -0.032 | [2] 0.034 | dasatinib 0.024 | [3] 0.081 | [4] -0.134 | tipifarnib -0.222 | mubritinib 0.122 | [6] 0.167 | [7] -0.136 | [8] -0.029 | [9] -0.333 | entinostat 0.026 | vorinostat 0.199 | silmitasertib -0.351

(further entries)

LANCL2 (UniProt Q9NS86)
inactive: bafetinib -0.055 | [1] -0.014 | nilotinib -0.007 | [2] 0.03 | dasatinib 0.041 | [3] 0.019 | [4] 0.018 | [5] -0.026 | tipifarnib 0.063 | mubritinib 0.037 | [6] 0.027 | [7] 0.032 | [8] -0.022 | [9] -0.042 | entinostat -0.02 | vorinostat 0.01 | citarinostat 0.035 | silmitasertib 0.001 | [10] -0.018 | [11] -0.035

LCLAT1 (UniProt Q6UWP7)
inactive: bafetinib -0.042 | [1] 0 | nilotinib -0.083 | [2] 0.058 | dasatinib 0.081 | [3] -0.066 | [4] 0.012 | [5] 0.056 | tipifarnib 0.006 | mubritinib 0.021 | [6] 0.019 | [7] 0.022 | [8] 0.015 | [9] 0.034 | entinostat -0.008 | vorinostat 0.04 | citarinostat 0.025 | silmitasertib -0.037 | [10] 0.001 | [11] -0.001

LRRC4B (UniProt Q9NT99)
inactive: bafetinib 0.093 | [1] -0.067 | nilotinib -0.161 | [2] 0.107 | dasatinib -0.028 | [3] 0.081 | [4] 0.008 | [5] 0.21 | tipifarnib 0.091 | [6] -0.234 | [7] 0.088 | [9] -0.062 | entinostat -0.294 | vorinostat -0.084 | citarinostat -0.1 | [10] -0.073 | [11] 0.047

LDLR (UniProt P01130)
inactive: bafetinib 0.005 | [1] -0.029 | nilotinib 0.041 | [2] -0.027 | dasatinib 0.056 | [3] -0.064 | [4] 0.013 | [5] 0.029 | tipifarnib 0.097 | mubritinib -0.082 | [6] 0.005 | [7] 0.093 | [8] 0.008 | [9] 0.124 | entinostat 0.057 | vorinostat -0.038 | citarinostat -0.035 | silmitasertib 0.074 | [10] 0.019 | [11] -0.071

LETMD1 isoform 7 (UniProt Q6P1Q0)
inactive: bafetinib -0.108 | [1] -0.072 | nilotinib -0.04 | [2] 0.01 | dasatinib -0.01 | [3] -0.027 | [5] -0.085 | tipifarnib -0.102 | mubritinib -0.108 | [6] -0.008 | [7] -0.033 | [8] -0.02 | entinostat 0.038 | vorinostat 0.03 | citarinostat 0.274 | silmitasertib 0.031 | [10] -0.036 | [11] -0.309
